No constants are given. Whether binding was seen depends on the method and setting. In cells and extracts the contact can be indirect. Some binding calls cover weakened binding; strength is not graded here.
Assays:
Trx (mouse) = target: T1, Trx (mouse) (UniProt P10639); assay: co-immunoprecipitation (IP anti-MPK38, immunoblot anti-Trx), mouse adipocyte lysate
T1 sequence (looked up): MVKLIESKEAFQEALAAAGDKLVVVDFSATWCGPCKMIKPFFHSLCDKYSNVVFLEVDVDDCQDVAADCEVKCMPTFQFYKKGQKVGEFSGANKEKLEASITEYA

Amino acid sequences for entries named in this document (tags omitted). A change or cut given only in a name is not applied to a line headed by its entry.
UniProt P23804: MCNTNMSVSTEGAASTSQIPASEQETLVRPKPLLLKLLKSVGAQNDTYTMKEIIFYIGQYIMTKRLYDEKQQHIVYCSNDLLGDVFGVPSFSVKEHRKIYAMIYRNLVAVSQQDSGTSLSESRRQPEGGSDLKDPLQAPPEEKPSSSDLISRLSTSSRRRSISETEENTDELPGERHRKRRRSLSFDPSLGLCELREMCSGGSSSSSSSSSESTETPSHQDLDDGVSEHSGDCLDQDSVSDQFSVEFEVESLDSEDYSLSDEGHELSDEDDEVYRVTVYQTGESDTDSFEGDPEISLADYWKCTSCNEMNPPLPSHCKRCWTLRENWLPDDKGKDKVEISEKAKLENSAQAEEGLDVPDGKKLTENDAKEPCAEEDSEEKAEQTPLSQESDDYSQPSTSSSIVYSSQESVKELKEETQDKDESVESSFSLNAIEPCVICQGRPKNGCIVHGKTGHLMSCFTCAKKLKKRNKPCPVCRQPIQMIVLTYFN
UniProt Q61846: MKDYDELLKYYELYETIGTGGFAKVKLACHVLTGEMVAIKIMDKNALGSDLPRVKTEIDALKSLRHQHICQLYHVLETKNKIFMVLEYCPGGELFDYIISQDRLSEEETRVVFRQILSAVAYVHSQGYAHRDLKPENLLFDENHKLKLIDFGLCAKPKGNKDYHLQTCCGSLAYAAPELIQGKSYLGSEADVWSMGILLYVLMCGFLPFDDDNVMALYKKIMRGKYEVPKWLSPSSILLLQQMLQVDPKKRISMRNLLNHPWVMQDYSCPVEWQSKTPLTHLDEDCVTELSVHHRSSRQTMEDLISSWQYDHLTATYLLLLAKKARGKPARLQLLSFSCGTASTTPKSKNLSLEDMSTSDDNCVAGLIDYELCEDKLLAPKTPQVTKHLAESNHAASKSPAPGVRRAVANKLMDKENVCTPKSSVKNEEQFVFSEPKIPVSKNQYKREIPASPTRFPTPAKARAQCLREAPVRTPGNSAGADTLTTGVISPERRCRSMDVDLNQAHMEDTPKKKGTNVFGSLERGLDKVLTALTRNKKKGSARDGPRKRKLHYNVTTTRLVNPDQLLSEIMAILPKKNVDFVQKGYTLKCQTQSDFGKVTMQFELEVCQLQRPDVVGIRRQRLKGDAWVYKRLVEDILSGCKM

Mdm2 (mouse) = Mdm2 (mouse) (UniProt P23804); assay: co-immunoprecipitation (IP anti-MPK38, immunoblot anti-Mdm2), mouse adipocyte lysate
ZPR9 (mouse) = target: T2, ZPR9 (mouse) (UniProt Q91VY9); assay: co-immunoprecipitation (IP anti-MPK38, immunoblot anti-ZPR9), mouse adipocyte lysate
T2 sequence (looked up): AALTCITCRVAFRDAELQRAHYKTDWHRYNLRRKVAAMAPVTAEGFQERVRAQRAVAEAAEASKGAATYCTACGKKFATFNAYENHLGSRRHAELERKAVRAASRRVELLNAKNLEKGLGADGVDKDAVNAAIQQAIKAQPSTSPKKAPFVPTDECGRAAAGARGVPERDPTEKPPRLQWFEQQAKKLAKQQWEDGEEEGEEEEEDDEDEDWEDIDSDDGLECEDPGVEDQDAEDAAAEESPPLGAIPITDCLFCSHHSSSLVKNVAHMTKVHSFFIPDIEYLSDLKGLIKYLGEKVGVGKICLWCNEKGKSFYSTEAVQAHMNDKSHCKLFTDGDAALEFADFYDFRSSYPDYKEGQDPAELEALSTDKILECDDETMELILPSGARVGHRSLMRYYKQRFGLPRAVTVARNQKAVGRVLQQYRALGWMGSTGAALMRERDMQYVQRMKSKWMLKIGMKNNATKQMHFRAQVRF

binding (Trx (mouse)): binds
binding (Mdm2 (mouse)): binds
binding (ZPR9 (mouse)): binds
Substance: murine protein serine-threonine kinase 38 (MPK38) (from UniProt Q61846 1-643) (enzyme)
